Results are given in words; binding and its absence hold for the method and conditions named.
Target: Crimean-Congo haemorrhagic fever virus L-protein, full length, wild type (Orthonairovirus haemorrhagiae (Crimean-Congo haemorrhagic fever virus)) (UniProt Q6TQR6)
Test: mass photometry; both purified

By UniProt entry, the sequences of proteins in these tests, tags left out.
UniProt Q6TQR6: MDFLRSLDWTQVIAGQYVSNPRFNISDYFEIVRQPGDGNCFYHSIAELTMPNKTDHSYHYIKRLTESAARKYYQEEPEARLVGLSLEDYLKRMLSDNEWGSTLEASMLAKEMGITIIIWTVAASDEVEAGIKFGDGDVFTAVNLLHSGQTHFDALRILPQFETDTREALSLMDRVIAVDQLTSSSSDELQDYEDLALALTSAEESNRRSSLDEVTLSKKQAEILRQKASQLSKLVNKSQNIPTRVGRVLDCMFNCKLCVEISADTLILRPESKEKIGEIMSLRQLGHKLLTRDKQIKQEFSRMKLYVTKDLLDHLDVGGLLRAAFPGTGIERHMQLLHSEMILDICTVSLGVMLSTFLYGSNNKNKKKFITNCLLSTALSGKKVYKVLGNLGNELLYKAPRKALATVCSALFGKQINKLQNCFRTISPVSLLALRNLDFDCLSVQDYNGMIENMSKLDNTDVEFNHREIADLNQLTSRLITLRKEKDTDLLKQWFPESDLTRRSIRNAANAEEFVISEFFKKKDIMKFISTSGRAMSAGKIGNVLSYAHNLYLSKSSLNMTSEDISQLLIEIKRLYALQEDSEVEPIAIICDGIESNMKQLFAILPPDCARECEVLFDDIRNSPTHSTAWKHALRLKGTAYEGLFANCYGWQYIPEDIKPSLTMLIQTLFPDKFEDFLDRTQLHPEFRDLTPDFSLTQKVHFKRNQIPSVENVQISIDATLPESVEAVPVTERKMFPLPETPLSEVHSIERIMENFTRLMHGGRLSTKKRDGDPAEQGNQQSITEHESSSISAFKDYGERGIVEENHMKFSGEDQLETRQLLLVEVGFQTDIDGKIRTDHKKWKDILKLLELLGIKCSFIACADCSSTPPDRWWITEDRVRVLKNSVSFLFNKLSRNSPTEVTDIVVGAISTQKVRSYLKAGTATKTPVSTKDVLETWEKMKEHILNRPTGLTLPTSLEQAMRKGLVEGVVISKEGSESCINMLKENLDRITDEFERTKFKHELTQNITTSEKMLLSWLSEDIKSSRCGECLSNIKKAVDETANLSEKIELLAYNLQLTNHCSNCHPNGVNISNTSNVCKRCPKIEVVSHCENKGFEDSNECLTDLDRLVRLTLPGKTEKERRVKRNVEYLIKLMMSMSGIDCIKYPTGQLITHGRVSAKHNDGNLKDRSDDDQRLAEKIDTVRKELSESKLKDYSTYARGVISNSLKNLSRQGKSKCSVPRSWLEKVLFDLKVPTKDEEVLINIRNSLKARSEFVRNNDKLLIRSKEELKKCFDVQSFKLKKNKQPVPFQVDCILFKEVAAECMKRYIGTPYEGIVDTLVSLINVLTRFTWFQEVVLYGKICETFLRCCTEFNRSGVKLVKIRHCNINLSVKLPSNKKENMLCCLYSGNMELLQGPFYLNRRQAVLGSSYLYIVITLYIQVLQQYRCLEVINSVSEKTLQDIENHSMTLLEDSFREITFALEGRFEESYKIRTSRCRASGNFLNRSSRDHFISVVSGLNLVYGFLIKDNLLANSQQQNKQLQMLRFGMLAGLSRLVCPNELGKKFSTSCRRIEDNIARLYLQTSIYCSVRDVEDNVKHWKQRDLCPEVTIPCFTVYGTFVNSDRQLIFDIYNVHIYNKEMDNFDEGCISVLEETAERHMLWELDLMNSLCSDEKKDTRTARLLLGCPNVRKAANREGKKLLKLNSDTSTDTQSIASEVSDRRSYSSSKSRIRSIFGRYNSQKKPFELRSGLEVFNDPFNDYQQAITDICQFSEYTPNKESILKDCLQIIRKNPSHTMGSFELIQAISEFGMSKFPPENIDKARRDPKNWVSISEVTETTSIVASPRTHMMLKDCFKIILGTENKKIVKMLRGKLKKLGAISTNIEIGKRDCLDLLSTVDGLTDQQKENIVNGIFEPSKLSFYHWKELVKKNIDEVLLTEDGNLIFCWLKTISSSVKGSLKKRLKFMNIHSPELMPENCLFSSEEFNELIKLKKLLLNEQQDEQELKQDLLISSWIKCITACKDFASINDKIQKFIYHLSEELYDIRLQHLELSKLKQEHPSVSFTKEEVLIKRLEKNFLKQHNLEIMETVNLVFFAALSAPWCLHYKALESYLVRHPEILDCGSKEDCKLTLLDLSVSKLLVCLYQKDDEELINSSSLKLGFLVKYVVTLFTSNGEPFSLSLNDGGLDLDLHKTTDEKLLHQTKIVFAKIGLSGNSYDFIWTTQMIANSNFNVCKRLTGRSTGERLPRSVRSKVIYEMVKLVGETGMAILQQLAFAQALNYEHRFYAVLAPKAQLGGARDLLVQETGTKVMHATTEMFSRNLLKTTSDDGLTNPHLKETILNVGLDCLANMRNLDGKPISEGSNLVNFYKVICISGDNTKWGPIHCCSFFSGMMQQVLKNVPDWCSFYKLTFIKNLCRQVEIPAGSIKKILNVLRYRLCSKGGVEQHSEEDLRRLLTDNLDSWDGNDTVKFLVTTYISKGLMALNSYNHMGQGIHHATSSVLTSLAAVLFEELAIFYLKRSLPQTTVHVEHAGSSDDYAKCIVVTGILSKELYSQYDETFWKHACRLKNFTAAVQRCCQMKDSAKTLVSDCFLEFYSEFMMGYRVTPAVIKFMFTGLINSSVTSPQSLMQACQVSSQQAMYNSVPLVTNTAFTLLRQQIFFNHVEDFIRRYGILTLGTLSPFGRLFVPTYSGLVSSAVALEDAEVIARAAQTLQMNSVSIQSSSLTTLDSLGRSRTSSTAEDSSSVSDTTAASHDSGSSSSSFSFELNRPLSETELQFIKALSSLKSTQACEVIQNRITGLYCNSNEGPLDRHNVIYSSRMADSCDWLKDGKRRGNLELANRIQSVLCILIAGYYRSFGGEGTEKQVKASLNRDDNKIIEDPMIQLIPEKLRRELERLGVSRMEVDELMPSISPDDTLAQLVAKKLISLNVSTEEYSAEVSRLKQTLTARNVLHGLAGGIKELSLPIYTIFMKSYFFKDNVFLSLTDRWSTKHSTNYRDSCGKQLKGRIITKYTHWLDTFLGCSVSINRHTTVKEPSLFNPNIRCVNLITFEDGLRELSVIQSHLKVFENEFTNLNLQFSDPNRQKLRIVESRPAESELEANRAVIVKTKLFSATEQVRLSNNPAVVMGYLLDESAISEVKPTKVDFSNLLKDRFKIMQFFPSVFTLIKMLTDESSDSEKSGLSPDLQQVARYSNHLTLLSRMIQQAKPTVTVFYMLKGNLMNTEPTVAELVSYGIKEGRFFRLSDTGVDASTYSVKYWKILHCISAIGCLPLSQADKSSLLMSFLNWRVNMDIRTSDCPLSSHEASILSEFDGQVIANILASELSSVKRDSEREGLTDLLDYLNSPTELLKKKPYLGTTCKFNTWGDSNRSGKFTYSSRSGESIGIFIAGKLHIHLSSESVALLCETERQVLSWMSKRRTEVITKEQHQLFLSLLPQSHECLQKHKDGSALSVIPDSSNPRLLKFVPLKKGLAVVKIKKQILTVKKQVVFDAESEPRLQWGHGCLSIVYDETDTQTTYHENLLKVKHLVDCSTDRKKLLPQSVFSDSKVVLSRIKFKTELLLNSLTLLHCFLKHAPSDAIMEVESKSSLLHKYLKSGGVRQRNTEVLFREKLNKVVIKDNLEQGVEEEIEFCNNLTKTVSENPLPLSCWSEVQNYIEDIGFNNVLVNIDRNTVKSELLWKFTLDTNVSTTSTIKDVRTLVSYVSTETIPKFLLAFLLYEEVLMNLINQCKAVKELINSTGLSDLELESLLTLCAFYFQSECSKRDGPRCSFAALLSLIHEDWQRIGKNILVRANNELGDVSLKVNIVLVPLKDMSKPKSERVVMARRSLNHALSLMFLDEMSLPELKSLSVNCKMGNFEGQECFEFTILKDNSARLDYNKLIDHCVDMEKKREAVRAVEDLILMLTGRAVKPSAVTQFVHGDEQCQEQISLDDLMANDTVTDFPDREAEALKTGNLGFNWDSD

Substance: Crimean-Congo haemorrhagic fever virus L-protein, full length, wild type (from UniProt Q6TQR6 1-3945) (enzyme)
- binding: no binding (tested: 0.01 mg/ml)
